The inconclusive results got no clear call from the source; some entries with a clear call stand among them for comparison. Potencies beside an inconclusive call are fits to weak or partial responses and may not hold up. Calls of active or inactive are those of the source. The call rests on the fitted dose curve; in most records, active means well fitted inhibition curve with a large enough effect; inconclusive means small, poorly fitted or top-dose-only effect; inactive means no such curve, though single readings can be large or run the other way.
Assay: qHTS to identify inhibitors of the type 1 interferon - major histocompatibility complex class I in skeletal muscle: Secondary screen by immunofluorescence; further: nearly all actives have a fitted effect of over 70% in size;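 on activity change, negative = inhibition: digitonin at 100 µM served as the cytotoxic control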
Details: C25cl48 myoblasts, IFN-b induced HLA-ABC immunofluorescence, 24 h; series mostly up to 49.8 µM; activity change, negative = inhibition: at the top concentration
Text: Assay Submitter (PI): Travis B. Kinder Ph.D. & James Inglese Ph.D. Assay Development and Screening Technology Laboratory (ADST) National Center for Advancing Translational Sciences (NCATS), Rockville, MD National Institute of Health (NIH), Bethesda, Maryland Idiopathic inflammatory myopathies, collectively referred to as myositis, are a group of rare autoimmune diseases characterized by skeletal muscle inflammation, weakness, and usually accompanied by systemic pathologies of the skin, lungs, or vasculature. Current immunosuppressive therapies and glucocorticoids are often not curative and are accompanied by harsh side effects, especially in children with juvenile myositis. We initiated a drug repurposing and development program to identify more targeted, less toxic therapeutics to treat myositis. Although its cause is not known, muscle from a subset of patients have an abundance of the inflammatory type 1 interferon (IFN) and a down-stream product major histocompatibility complex class I (MHC class I), which are both thought to contribute to damage and weakness. We conducted quantitative high throughput screening (qHTS) on 6,576 compounds (4,679 unique) through a series of cell-based assays to identify those that inhibit the IFN-stimulated expression of MHC class I in muscle precursor cells (myoblasts). The compound identification and evaluation strategy utilized a primary screen with reporter-tagged MHC class I in genome-engineered myoblasts, ATP content counter screen for viability, HLA-ABC immunofluorescence secondary screen, and HLA-B RT-qPCR tertiary screen. To verify activity of compounds identified by qHTS in HLA-B HiBit reporter cells, compounds were assayed by high throughput HLA-ABC immunofluorescence. Briefly, 216 compounds identified from primary and counter screening as inhibitory with minimal cytotoxicity were dispensed into black/clear bottom […] using acoustic dispensing in an 11-point, 1:3 titration with a high final concentration of 50 uM. Normal immortalized human myoblasts C25cl48 were added to the plates with 4.0 ng/ml human IFN-beta for 24 hours, fixed, stained by immunofluorescence for HLA-ABC protein, nuclei, and cell body, and analyzed by laser scanning cytometry as described by Auld et al., 2006. References: Auld DS, Johnson RL, Zhang Y, Veith H, Jadhav A, Yasgar A, Simeonov A, Zheng W, Martinez ED, Westwick JK, Austin CP, Inglese J. 2006. Fluorescent protein-based cellular assays analyzed by laser-scanning microplate cytometry in 1536-well plate format. Methods Enzymol 414:566-89. doi:10.1016/S0076-6879(06)14029-X
PROTOCOL TABLE (as described by Inglese et al., 2007) SEQUENCE No. (e.g., 1, 2, 3, etc.); […] (e.g., Cells, Incubation, Reagent, etc.); VALUE; DESCRIPTION 0; Compounds; 25 nl; Follow-up compounds dispensed at 25 nl/well with Labcyte Echo 655 acoustic dispenser in triplicate Aurora ChemLib 1536K black/clear bottom, low base, TC 1536-well plates (00019324). Also dispensed 25 nl/well DMSO control, ruxolitinib IFN-b inhibitor control titration, and digitonin cytotoxic control 1a; Cells; 5 uL; Multidrop Combi (Thermo Scientific) to seed 125 cells/well into eight plates in 5 ul/well of iHSKM growth medium (GM) without dexamethasone into columns 1+2. Add metal lids with gas-exchange holes 1b; Cells; 5 uL; Multidrop Combi (Thermo Scientific) to seed 125 cells/well into eight plates in 5 ul/well of iHSKM GM without dexamethasone + 4 ng/ml IFN-b into columns 3 - 48. […]
On the % scale 0 is the no-effect control and ±100 the full control effect; potency means the concentration at half of the fitted maximal effect.

Row | SMILES | Potency | activity change, negative = inhibition
1 | C[C@]12CCC(=O)C=C1CC[C@H]1[C@@H]3CC[C@](O)(C(=O)CO)[C@@]3(C)C[C@H](O)[C@@]12F | inconclusive: 40.8 nM [inhibitor, full curve, poor fit] | 
2 | C=CCNC1=C2C[C@@H](C)C[C@H](OC)[C@H](O)[C@@H](C)/C=C(\C)[C@H](OC(N)=O)[C@@H](OC)/C=C\C=C(/C)C(=O)NC(=CC1=O)C2=O | inconclusive: 12.9 nM [inhibitor, full curve, poor fit] | 
3 | Cc1cc(-n2c(=O)ccc3cnc4[nH]ccc4c32)ccc1F | inconclusive: 40800 nM [inhibitor, single point] | 
4 | C[C@]12C=CC(=O)C=C1CC[C@H]1[C@@H]3C[C@@H](O)[C@](O)(C(=O)CO)[C@@]3(C)C[C@H](O)[C@@]12F |  | inactive: -12.7%
5 | O=C1Nc2ccccc2C1(c1ccc(O)cc1)c1ccc(O)cc1 |  | inactive: 0.682%
6 | CCOC(=O)N1CCN(/[N+]([O-])=N/Oc2ccc([N+](=O)[O-])cc2[N+](=O)[O-])CC1 | inconclusive: 4080 nM [inhibitor, full curve, poor fit] | 
7 | CC(=O)OCC(=O)[C@@]12OC(C)(C)O[C@@H]1C[C@H]1[C@@H]3C[C@H](F)C4=CC(=O)C=C[C@]4(C)[C@@]3(F)[C@@H](O)C[C@@]12C | inconclusive: 12.9 nM [inhibitor, full curve, poor fit] | 
8 | O=C1NC(=O)[C@@H](c2c[nH]c3ccccc23)[C@H]1c1cn2c3c(cccc13)CCC2 |  | inactive: 17.3%
9 | Cc1oncc1C(=O)Nc1ccc(C(F)(F)F)cc1 |  | inactive: 10.8%
10 | C[C@H](Nc1ncnc2nc[nH]c12)c1cc2cccc(Cl)c2c(=O)n1-c1ccccc1 | inconclusive: 22900 nM [inhibitor, partial curve, poor fit] | 
11 | O=C(/C=C/c1ccc2ccc(C(F)(F)F)cc2n1)c1ccncc1 | inconclusive: 1290 nM [inhibitor, full curve, poor fit] | 
12 | CC(=O)Oc1ccc(C2(c3ccc(OC(C)=O)cc3)C(=O)Nc3ccccc32)cc1 | inconclusive: 20500 nM [inhibitor, single point] | 
13 | CN1CCC(c2c(O)cc(O)c3c(=O)cc(-c4ccccc4Cl)oc23)C1CO (stereo not given) | active: 408 nM | 
14 | CCc1c(-c2ccccc2C)nc2c(C#N)c[nH]n2c1=O | inconclusive: 22900 nM [inhibitor, partial curve, poor fit] | 
15 | O=C1CN2Cc3c(ccc(Cl)c3Cl)N=C2N1 |  | inactive: 7.02%
16 | CC(C)c1cc(-c2n[nH]c(=O)n2-c2ccc3c(ccn3C)c2)c(O)cc1O | inconclusive: 11.5 nM [inhibitor, full curve, poor fit] | 
17 | CCCCC(=O)OCC(=O)[C@H]1[C@H](C)C[C@H]2[C@@H]3C[C@H](F)C4=CC(=O)C=C[C@]4(C)[C@@]3(F)[C@@H](O)C[C@@]21C |  | inactive: -15.5%
18 | C[C@H]1C[C@@H]2[C@H]([C@@H](O)C[C@@]3(C)[C@H]2CC[C@]3(O)C(=O)CO)[C@@]2(C)C=CC(=O)C=C12 |  | inactive: -26.3%
19 | O=C(/C=C/c1cccc(S(=O)(=O)Nc2ccccc2)c1)NO | active: 514 nM | 
20 | CCS(=O)(=O)Nc1ccc(Oc2ccc(F)cc2F)c(-c2cn(C)c(=O)c3[nH]ccc23)c1 | inconclusive: 458 nM [inhibitor, full curve, poor fit] | 

Row | SMILES | Potency | activity change, negative = inhibition
21 | CN(C)C/C=C/C(=O)Nc1cccc(C(=O)Nc2cccc(Nc3ncc(Cl)c(-c4c[nH]c5ccccc45)n3)c2)c1 | inconclusive: 129 nM [inhibitor, full curve, poor fit] | 
22 | COc1ncc(Nc2ncc(C(C)N3CCN(S(C)(=O)=O)CC3)cc2-c2nc(C)nc(N)n2)cc1F (stereo not given) |  | inactive: -17.3%
23 | CCOc1cc2ncc(C#N)c(Nc3ccc(OCc4ccccn4)c(Cl)c3)c2cc1NC(=O)/C=C/CN(C)C | inconclusive: 11500 nM [inhibitor, full curve, poor fit] | 
24 | Cc1c(C(=O)Nc2ccc(Oc3ccnc4[nH]cc(-c5ccccc5)c34)c(F)c2)c(=O)n(-c2ccc(F)cc2)n1C | inconclusive: 6470 nM [inhibitor, full curve, poor fit] | 
25 | CC[C@H](CC#N)OC(=O)N[C@@H](C)c1cccc(NC(=O)Nc2ccc(-c3cnco3)c(OC)c2)c1 | inconclusive: 25700 nM [inhibitor, partial curve, poor fit] | 
26 | C=CC(=O)N1CCc2ccc(-n3c(=O)ccc4cnc5ccc(-c6cnn(C)c6)cc5c43)cc21 | active: 2890 nM | 
27 | CC(=O)OCC(=O)[C@@]1(O)CC[C@H]2[C@@H]3CCC4=CC(=O)C=C[C@]4(C)[C@H]3[C@@H](O)C[C@@]21C | inconclusive: 1020 nM [inhibitor, full curve, poor fit] | 
28 | Cc1cc(O)c(-c2ccc([C@@H](C)CN)cc2)c2c1[nH]c(=O)c1sccc12 | active: 18.2 nM | 
29 | COc1ccc(-c2nc(N3CCOCC3)c3sc(CN(C)c4ncc(C(=O)NO)cn4)cc3n2)cn1 | active: 5.8 nM | 
30 | Cc1nc(Nc2n[nH]c3c2CN(C(=O)N[C@H](CN(C)C)c2ccccc2)C3(C)C)c2sccc2n1 | inconclusive: 57.6 nM [inhibitor, full curve, poor fit] | 
31 | CN(C)C/C=C/C(=O)Nc1ccc(C(=O)Nc2cccc(Nc3ncc(Cl)c(-c4c[nH]c5ccccc45)n3)c2)cc1 | inconclusive: 91.4 nM [inhibitor, full curve, poor fit] | 
32 | COc1c(C)cnc(Cn2cnc3c(Cl)nc(N)nc32)c1C | inconclusive: 57.6 nM [inhibitor, full curve] | 
33 | CC(C)c1cc(C(=O)N2Cc3ccc(CN4CCN(C)CC4)cc3C2)c(O)cc1O | inconclusive: 45.8 nM [inhibitor, full curve] | 
34 | CCn1nnc2c(N3CCOCC3)nc(-c3ccc(NC(=O)Nc4ccc(C(=O)N5CCN(C)CC5)cc4)cc3)nc21 | inconclusive: 162 nM [inhibitor, full curve, poor fit] | 
35 | N#Cc1c(C2CCNCC2)cc(-c2c(O)cccc2OCC2CC2)nc1N | inconclusive: 12900 nM [inhibitor, partial curve, poor fit] | 
36 | CCN(CC)CCOc1ccc(Nc2ncc3cc(-c4c(Cl)cccc4Cl)c(=O)n(C)c3n2)cc1 | inconclusive: 4580 nM [inhibitor, full curve, poor fit] | 
37 | CO[C@H]1/C=C\C=C(\C)C(=O)NC2=CC(=O)C(NCCN(C)C)=C(C[C@@H](C)C[C@H](OC)[C@H](O)[C@@H](C)/C=C(/C)[C@@H]1OC(N)=O)C2=O |  | inactive: -125%
38 | COC(=O)N[C@@H](C)CNc1nccc(-c2cn(C(C)C)nc2-c2cc(Cl)cc(NS(C)(=O)=O)c2F)n1 |  | inactive: -26.1%
39 | COc1cc(Nc2ncc(F)c(Nc3ccc4c(n3)NC(=O)C(C)(C)O4)n2)cc(OC)c1OC |  | inactive: 0.596%
40 | CO[C@H]1C(=O)[C@]2(C)[C@@H](OC)C[C@H]3OC[C@@]3(OC(C)=O)[C@H]2[C@H](OC(=O)c2ccccc2)[C@]2(O)C[C@H](OC(=O)[C@H](O)[C@@H](NC(=O)OC(C)(C)C)c3ccccc3)C(C)=C1C2(C)C |  | inactive: 2.93%

Rewritten as a markdown table: entries from further up

| Row | SMILES | Potency | activity change, negative = inhibition |
| --- | --- | --- | --- |
| 2 | C=CCNC1=C2C[C@@H](C)C[C@H](OC)[C@H](O)[C@@H](C)/C=C(\C)[C@H](OC(N)=O)[C@@H](OC)/C=C\C=C(/C)C(=O)NC(=CC1=O)C2=O | inconclusive: 12.9 nM [inhibitor, full curve, poor fit] |  |
| 12 | CC(=O)Oc1ccc(C2(c3ccc(OC(C)=O)cc3)C(=O)Nc3ccccc32)cc1 | inconclusive: 20500 nM [inhibitor, single point] |  |
